Experimental data from paper PMC11220795 (Molecular Pharmaceutics, 2024).

Test: Drug solubility in medium-chain triglycerides (MCT, Miglyol 812 N); SORESOS 96-well assay, miniaturized shake-flask or literature
Details: decadic logarithm of molar solubility in MCTs (Miglyol 812 N), 24 h at room temperature; no literature source given
Procedure: The excipient complies with the quality specifications of the European Pharmacopoeia. The solvents used for the ultra-performance liquid chromatography (UPLC) quantification were of UPLC grade.
(b) employing a miniaturized version of the shake-flask method in 2 mL glass vials,[33] or (c) collecting data from the literature.[12],[34] Each of the employed assays involved residual solid-state screenings by powder X-ray diffraction to identify potential solid-state changes during solubility screenings.

With `COc1cc2c(cc1OC)C(=O)C(CC1CCN(Cc3ccccc3)CC1)C2` (stereo not shown) [donepezil] the “log10 S [M]” value was -1.11 M.
